No constants are given. Whether binding was seen depends on the method and setting. Binding seen in cells or lysates may run through a third protein. A yes stands for co-enrichment or nearness to the bait. Other partners may have been found.
Molecular target: T1, Transmembrane and tetratricopeptide repeat (TPR) repeat-containing protein 3 (TMTC3) (human (endogenous in KYSE450, KYSE410, KYSE180)) (UniProt Q6ZXV5)
T1 sequence: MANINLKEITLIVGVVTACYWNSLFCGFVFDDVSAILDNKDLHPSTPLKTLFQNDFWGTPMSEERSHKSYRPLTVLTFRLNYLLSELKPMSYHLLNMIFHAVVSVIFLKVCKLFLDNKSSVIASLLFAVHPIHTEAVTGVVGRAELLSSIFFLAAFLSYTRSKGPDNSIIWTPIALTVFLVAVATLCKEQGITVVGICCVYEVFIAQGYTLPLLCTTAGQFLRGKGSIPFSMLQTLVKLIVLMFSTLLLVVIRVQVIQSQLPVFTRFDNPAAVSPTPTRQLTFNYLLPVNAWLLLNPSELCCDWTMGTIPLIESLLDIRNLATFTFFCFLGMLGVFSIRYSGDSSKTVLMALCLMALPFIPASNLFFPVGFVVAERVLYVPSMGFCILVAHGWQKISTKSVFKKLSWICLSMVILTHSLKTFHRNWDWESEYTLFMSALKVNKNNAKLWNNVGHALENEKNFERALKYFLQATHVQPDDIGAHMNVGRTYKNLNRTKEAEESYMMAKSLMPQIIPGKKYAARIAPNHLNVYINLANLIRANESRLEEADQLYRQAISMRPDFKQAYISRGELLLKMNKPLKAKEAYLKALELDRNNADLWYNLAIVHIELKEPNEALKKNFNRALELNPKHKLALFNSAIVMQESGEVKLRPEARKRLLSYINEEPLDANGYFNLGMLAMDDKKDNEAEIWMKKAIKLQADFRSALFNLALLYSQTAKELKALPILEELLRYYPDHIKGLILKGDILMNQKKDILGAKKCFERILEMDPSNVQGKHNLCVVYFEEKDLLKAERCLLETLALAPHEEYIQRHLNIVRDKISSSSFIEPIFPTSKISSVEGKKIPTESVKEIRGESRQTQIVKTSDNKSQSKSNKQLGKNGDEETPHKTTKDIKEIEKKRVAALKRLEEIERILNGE
Assay: affinity purification with mass spectrometry; immunoprecipitation with TMTC3 antibody from KYSE450 cells; silver-stained SDS-PAGE; differential band around 55 kDa between IgG and TMTC3 group analysed by mass spectrometry

binding: binds
Substance: inosine-5'-monophosphate dehydrogenase 2 (IMPDH2) (from UniProt P12268 1-514) (enzyme)

Source: PMC10521530
